Assay results reported in paper doi:10.1101/2024.10.27.620516.
Like-named read-outs stand apart in the source and are kept apart here. These are yes or no findings as the source states them, for the method shown. Binding seen in cells or lysates may run through a third protein. Some results given as binding are weak or reduced against the parent protein; the word gives no strength. Tags and fused reporters may be left off the sequences shown.

The chains behind the UniProt entries cited, without tags or fusion partners.
UniProt Q9H6L5: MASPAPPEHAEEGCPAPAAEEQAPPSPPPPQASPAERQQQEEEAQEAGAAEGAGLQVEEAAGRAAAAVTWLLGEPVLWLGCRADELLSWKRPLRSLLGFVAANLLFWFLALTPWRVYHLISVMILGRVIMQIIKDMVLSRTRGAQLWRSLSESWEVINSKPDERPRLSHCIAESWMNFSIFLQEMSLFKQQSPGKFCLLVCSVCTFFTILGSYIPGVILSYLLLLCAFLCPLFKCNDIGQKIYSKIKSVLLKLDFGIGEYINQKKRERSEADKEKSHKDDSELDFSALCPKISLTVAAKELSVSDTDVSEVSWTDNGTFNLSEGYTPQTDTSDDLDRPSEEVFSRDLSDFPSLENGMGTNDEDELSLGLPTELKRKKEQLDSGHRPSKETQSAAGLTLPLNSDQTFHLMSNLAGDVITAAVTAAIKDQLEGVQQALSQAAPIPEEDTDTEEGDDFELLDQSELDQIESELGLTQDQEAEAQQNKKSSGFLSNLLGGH

Assays:
[1] = molecular target: T1, full length GFP-tagged NBR1 (GFP-NBR1^FL) (UniProt Q14596); experiment: co-IP
T1 sequence: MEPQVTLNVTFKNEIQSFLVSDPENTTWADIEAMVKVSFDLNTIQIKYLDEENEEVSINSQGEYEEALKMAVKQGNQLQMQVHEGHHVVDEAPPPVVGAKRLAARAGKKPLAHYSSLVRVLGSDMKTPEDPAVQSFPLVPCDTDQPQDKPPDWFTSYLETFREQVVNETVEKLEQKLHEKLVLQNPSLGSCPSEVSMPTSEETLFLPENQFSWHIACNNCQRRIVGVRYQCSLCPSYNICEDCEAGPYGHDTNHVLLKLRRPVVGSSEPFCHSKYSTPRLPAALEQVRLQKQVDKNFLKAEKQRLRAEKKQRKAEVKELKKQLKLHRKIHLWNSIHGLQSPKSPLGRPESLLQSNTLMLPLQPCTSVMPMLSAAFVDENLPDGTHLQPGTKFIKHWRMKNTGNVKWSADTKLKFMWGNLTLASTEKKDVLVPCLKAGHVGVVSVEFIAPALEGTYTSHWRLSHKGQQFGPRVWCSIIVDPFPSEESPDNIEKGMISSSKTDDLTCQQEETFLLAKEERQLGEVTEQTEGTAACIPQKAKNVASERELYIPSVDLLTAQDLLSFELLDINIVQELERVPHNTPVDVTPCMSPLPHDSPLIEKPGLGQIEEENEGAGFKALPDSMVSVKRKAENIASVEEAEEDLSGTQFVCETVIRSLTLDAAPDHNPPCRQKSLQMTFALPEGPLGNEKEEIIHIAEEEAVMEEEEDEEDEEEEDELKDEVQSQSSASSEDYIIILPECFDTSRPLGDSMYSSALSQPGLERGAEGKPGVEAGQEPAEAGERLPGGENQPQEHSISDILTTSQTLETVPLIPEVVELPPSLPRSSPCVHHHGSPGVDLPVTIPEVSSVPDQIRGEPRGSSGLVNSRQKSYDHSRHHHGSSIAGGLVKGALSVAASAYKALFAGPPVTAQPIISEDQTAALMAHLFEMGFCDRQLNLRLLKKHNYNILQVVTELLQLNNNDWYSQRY

[2] = molecular target: T1, full length GFP-tagged NBR1 (GFP-NBR1^FL); experiment: co-IP; remark: listed apart in the source

FAM134B (from UniProt Q9H6L5 1-497)
binding [1]: binds weakly

B1: CCPG1 (protein, UniProt Q9ULG6 1-757)
chain: MSENSSDSDSSCGWTVISHEGSDIEMLNSVTPTDSCEPAPECSSLEQEELQALQIEQGESSQNGTVLMEETAYPALEETSSTIEAEEQKIPEDSIYIGTASDDSDIVTLEPPKLEEIGNQEVVIVEEAQSSEDFNMGSSSSSQYTFCQPETVFSSQPSDDESSSDETSNQPSPAFRRRRARKKTVSASESEDRLVAEQETEPSKELSKRQFSSGLNKCVILALVIAISMGFGHFYGTIQIQKRQQLVRKIHEDELNDMKDYLSQCQQEQESFIDYKSLKENLARCWTLTEAEKMSFETQKTNLATENQYLRVSLEKEEKALSSLQEELNKLREQIRILEDKGTSTELVKENQKLKQHLEEEKQKKHSFLSQRETLLTEAKMLKRELERERLVTTALRGELQQLSGSQLHGKSDSPNVYTEKKEIAILRERLTELERKLTFEQQRSDLWERLYVEAKDQNGKQGTDGKKKGGRGSHRAKNKSKETFLGSVKETFDAMKNSTKEFVRHHKEKIKQAKEAVKENLKKFSDSVKSTFRHFKDTTKNIFDEKGNKRFGATKEAAEKPRTVFSDYLHPQYKAPTENHHNRGPTMQNDGRKEKPVHFKEFRKNTNSKKCSPGHDCRENSHSFRKACSGVFDCAQQESMSLFNTVVNPIRMDEFRQIIQRYMLKELDTFCHWNELDQFINKFFLNGVFIHDQKLFTDFVNDVKDYLRNMKEYEVDNDGVFEKLDEYIYRHFFGHTFSPPYGPRSVYIKPCHYSSL
binding [2]: binds
